PubChem BioAssay AID504774 – Drosophila RNAi Screening Center | 2011
In all, the deposit lists about 23,000 reagents; shown is an unselected part of those that have a named target and a result. 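Values are quantile-normalised luminescence on an arbitrary scale; higher means more cells surviving MMS.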 A plus sign joins genes that one reagent is predicted to hit.

- Aim: 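Knock-downs that shift viability of MMS-exposed cells relative to untreated ones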 (primary screen)
- Cells: Drosophila Kc167 cells
- Knock-down reagent: long dsRNA against Drosophila genes, about 0.25 µg dsRNA per well
- Time to read-out: about 6 days: 3 days knock-down, then 3 days with or without MMS
- Conditions: methyl methanesulphonate 0.004% (w/v) for 3 days after knock-down
- Measurement: 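Viability in wells given MMS, read as ATP luminescence, normalised by quantiles plate by plate and averaged across replicates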
- Direction: mean viability with MMS and viability with MMS: higher = more surviving cells after MMS

gene knocked down | PubChem SID | mean viability with MMS | viability with MMS, replicate 1 | viability with MMS, replicate 2
Ufc1 (Ubiquitin-fold modifier conjugating enzyme 1) | SID104186948 | 3.59e6 | 4.09e6 | 4.07e6
CG10904 | SID104183876 | 3.56e6 | 4.08e6 | 4.01e6
CG3368 | SID104195277 | 3.65e6 | 4.19e6 | 4.06e6
CG15717 | SID104199476 | 3.68e6 | 4.19e6 | 4.11e6
Dhc36C (Dynein heavy chain at 36C) | SID104183107 | 3.61e6 | 3.98e6 | 4.20e6
Polr1H (RNA polymerase I subunit H) | SID104194386 | 3.48e6 | 3.95e6 | 3.96e6
Ugt35C1 (UDP-glycosyltransferase family 35 member C1) | SID104195872 | 3.37e6 | 3.80e6 | 3.90e6
mRpS29 (mitochondrial ribosomal protein S29) | SID104184190 | 3.51e6 | 4.07e6 | 4.06e6
sbb (scribbler) | SID104185515 | 3.50e6 | 3.96e6 | 3.99e6
sbb (scribbler) | SID104187468 | 3.49e6 | 4.01e6 | 3.89e6
CG14626 | SID104198423 | 3.49e6 | 3.98e6 | 3.96e6
tut (tumorous testis) | SID104188701 | 3.54e6 | 4.09e6 | 3.93e6
CG14020 | SID104182142 | 3.50e6 | 3.89e6 | 4.04e6
tey (teyrha-meyrha) | SID104190834 | 3.55e6 | 4.06e6 | 3.88e6
tey (teyrha-meyrha) | SID104201385 | 3.30e6 | 3.86e6 | 3.78e6
CG32483 | SID104187694 | 3.55e6 | 4.08e6 | 3.96e6
Pgcl (Pepsinogen C-like) | SID104198607 | 3.55e6 | 3.85e6 | 4.21e6
CG33308 | SID104181211 | 3.54e6 | 4.02e6 | 4.00e6
CR14499 (retired record) | SID104186262 | 3.58e6 | 3.93e6 | 4.19e6
AstC (Allatostatin C) | SID104182195 | 3.46e6 | 4.16e6 | 3.67e6
Mettl14 (Methyltransferase like 14) | SID104182865 | 3.68e6 | 4.20e6 | 4.18e6
Tmem63 (Transmembrane protein 63) | SID104185855 | 3.62e6 | 4.10e6 | 4.05e6
TTLL3B (Tubulin tyrosine ligase-like 3B) | SID104181925 | 3.72e6 | 4.05e6 | 4.29e6
Hsc70-1 (Heat shock protein 70 cognate 1) | SID104190977 | 3.22e6 | 3.58e6 | 3.65e6
CG12835 (retired record) | SID104185973 | 3.45e6 | 3.98e6 | 3.87e6
CG18530 | SID104195133 | 3.60e6 | 4.08e6 | 4.05e6
CG31953 (retired record) + gkt | SID104180501 | 3.50e6 | 3.87e6 | 4.05e6
CG9759 | SID104196350 | 3.36e6 | 3.91e6 | 3.67e6

Quoted from the listing (4 entries):
gene knocked down | PubChem SID | mean viability with MMS | viability with MMS, replicate 1 | viability with MMS, replicate 2
CG32483 | SID104187694 | 3.55e6 | 4.08e6 | 3.96e6
Pgcl (Pepsinogen C-like) | SID104198607 | 3.55e6 | 3.85e6 | 4.21e6
CG33308 | SID104181211 | 3.54e6 | 4.02e6 | 4.00e6
CR14499 (retired record) | SID104186262 | 3.58e6 | 3.93e6 | 4.19e6
